Data on one molecule can be found in patent US20120135880A1.

Sequences of proteins named here, by UniProt entry; tags and fusion partners are left off. A change or cut given only in a name is not applied to a line headed by its entry.
UniProt Q9HCN6: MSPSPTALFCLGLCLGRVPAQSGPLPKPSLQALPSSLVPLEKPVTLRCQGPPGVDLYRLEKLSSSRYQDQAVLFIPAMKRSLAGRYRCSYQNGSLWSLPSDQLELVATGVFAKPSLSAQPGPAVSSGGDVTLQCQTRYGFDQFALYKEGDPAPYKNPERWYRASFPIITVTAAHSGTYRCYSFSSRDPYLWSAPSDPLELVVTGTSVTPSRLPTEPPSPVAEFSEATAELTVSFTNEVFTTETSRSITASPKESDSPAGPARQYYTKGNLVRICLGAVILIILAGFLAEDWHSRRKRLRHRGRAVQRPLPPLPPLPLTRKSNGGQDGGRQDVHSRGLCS

Results are given in words; binding and its absence hold for the method and conditions named. Some entries that bind do so weakly or less than the wild type.

This assay has as its target collagen-binding domain (CBD) of human glycoprotein VI (GPVI), residues Q1-T183, recombinant, refolded from E. coli inclusion bodies (human) (UniProt Q9HCN6). As to the kind of experiment: sedimentation velocity analytical ultracentrifugation; 6.7 µM GPVI CBD titrated with CRP (0, 1.7, 10, 20, 26, 80, 240 µM); inset: s* against [CRP] with fitted single-site isotherm.

B1: collagen-related peptide (CRP), non-crosslinked (POG)10 triple helix (peptide)
peptide: POGPOGPOGPOGPOGPOGPOGPOGPOGPOG
modifications: O is hydroxyproline (second residue of every POG triplet)
Take B1: the binding entry was “binds”.
